According to patent US20060128654A1, “Pharmaceutical formulation of cytidine analogs and derivatives” (priority 2004, published 2006):
At least one read-out could not be matched to a standard name with certainty.

Experiment: Solubility of cytidine analog in 40% w/w cyclodextrin solutions vs potassium phosphate buffer
Format: physicochemical

## Nc1ncn([C@H]2C[C@H](O)[C@@H](CO)O2)c(=O)n1 [decitabine, 5-aza-2′-deoxycytidine]
  Solubility increase with cyclodextrins as excipients in aqueous solution: more than two fold
